## Library screen at single concentrations

By UniProt entry, the sequences of proteins in these tests, tags left out. Residues count along the entry.
UniProt P9WPC5, whole entry: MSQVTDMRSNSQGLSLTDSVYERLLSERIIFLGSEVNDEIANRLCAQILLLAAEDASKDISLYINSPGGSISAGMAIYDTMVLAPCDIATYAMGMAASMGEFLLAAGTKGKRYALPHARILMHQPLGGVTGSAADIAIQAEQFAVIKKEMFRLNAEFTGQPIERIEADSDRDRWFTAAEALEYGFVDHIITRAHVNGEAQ
UniProt P9WPC3, whole entry partner: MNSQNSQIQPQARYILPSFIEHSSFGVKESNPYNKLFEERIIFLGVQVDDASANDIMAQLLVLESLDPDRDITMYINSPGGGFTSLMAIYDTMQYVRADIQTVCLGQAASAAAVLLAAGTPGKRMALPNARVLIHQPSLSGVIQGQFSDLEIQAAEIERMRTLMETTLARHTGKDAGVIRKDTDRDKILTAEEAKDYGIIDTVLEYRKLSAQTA
UniProt P9WFT3, whole entry: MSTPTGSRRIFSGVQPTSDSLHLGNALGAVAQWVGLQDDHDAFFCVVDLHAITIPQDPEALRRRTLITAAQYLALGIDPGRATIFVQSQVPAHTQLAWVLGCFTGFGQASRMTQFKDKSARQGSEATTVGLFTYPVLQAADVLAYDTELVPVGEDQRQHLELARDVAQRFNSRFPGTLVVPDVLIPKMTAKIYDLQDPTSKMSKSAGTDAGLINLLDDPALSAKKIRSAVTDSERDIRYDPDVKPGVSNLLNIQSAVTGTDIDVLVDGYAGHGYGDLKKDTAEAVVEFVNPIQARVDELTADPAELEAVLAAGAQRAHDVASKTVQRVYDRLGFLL
UniProt Q8IDJ8, 1-583: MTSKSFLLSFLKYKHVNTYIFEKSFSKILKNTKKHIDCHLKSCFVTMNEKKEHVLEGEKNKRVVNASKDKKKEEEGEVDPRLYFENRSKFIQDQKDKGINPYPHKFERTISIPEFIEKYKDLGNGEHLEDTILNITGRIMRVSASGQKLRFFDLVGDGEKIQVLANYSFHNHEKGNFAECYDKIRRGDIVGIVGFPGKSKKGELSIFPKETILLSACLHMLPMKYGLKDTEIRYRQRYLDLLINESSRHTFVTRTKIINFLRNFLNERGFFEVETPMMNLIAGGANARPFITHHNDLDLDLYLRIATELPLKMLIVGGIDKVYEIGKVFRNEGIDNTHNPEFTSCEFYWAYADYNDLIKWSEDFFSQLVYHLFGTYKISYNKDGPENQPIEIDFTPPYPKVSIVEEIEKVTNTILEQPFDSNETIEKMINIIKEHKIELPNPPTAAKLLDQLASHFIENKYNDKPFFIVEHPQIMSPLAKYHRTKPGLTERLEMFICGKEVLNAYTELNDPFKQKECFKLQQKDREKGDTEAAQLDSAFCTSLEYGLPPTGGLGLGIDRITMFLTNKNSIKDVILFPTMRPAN

A: 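ClpP1P2, Mycobacterium tuberculosis (UniProt P9WPC5 and UniProt P9WPC3). Protease assay of ClpP1P2, read by the AMC dye that it sets free. Concentration: 50 µM. Direction is inferred from only a few compounds that gave an IC50; most scored high, so higher reads as stronger inhibition. Most other retested compounds had strongly negative values. Size under these conditions: about 69,000 compounds, about 10 of them at 50% or above in at least one test.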
B: 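Enzyme assay of tryptophanyl-tRNA synthetase; the read-out is not stated. Target: Tryptophan-tRNA ligase, Mycobacterium tuberculosis (UniProt P9WFT3). Tested at 10 µM. Direction is not recorded; retested compounds ran higher, which suggests that high means inhibition. About 65,000 compounds were tested under these conditions; 0.098% (about 64) showed 50% or more at least once.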
C: 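Enzyme assay of the cytosolic lysyl-tRNA synthetase in 384-well plates, read by luminescence. Target: Lysine-tRNA ligase, Plasmodium falciparum 3D7 (UniProt Q8IDJ8). Concentration: 30 µM. Higher reads as stronger inhibition, judged from the few compounds that gave an IC50. Of about 69,000 compounds tested this way, about 49 (0.071%) reached 50% or more in at least one test.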

The filed quantity is “Percent Effect” (%).
How 0% and 100% were set is not recorded. Most values in the screen are low, and negative values occur.
The compounds are a random part of those screened.
A dash means the value is not listed here; it may have been measured.

compound,A,B,C
Cc1noc([C@H]2C[C@@H]3CCN(C(=O)c4cccn4C)C[C@H]3O2)n1,-0.5474,-,5.19
Cc1cccc(CN2CC3(CCNCC3)OCC2=O)n1,-1.041,-4.128,11.28
CCn1ncc(C(=O)NCCc2nc(-c3cccnc3)n[nH]2)c1C,-4.415,-7.815,-1.988
CCNC(=O)NC(=O)CSC(C)c1c(F)cccc1F (stereo not given),-1.562,-0.7105,0.7119
CCOCCN1CCN(Cc2cccc(C(=O)N(C)C)c2)CC1CC (stereo not given),-26.91,-4.827,1.133
CC(C)C(=O)N1CCC(c2c(C(N)=O)sc3ccccc23)C1 (stereo not given),-17.6,31.08,-0.7218
Cc1nnc(NCCc2coc(-c3ccc(F)cc3)n2)c(C#N)c1C,7.258,0.8396,8.052
Clc1ccccc1C1(c2ccnc(C3CCCC3)n2)CCNCC1,-11.49,1.485,-5.314
CC(C)OCCCN(Cc1ccncc1)Cc1cccc(F)c1F,12.88,7.13,-0.08449
N#Cc1cccc(N2CCC(c3nccn3Cc3cscn3)CC2)n1,6.752,4.608,7.919
Cc1cc(C(=O)NS(C)(=O)=O)ccc1I,-2.826,6.381,-0.8586
CC(C)CN1CCC(C(=O)NCCNC(=O)c2ccoc2)CC1,2.651,0.2742,10.08
CNC(=O)C1CCN(c2nc3nc[nH]c(=O)c3s2)CC1,2.822,0,2.808
COc1c(C)cnc(CNC(=O)CCOCc2ccccc2)c1C,0.8265,4.568,3.474
CN(c1nc(CSc2nnc(Cn3cncn3)o2)cs1)C1CC1,8.123,0.641,2.731
CN1C(=O)CC(C(=O)O)C12CCN(Cc1ccc(Cl)cc1F)CC2 (stereo not given),7.817,3.02,-2.981
O[C@H]1CN(c2nc(-c3ccccc3)no2)C[C@@H]1N1CCOCC1,1.832,0.5038,-1.299
Cc1csc(CN2CC[C@H]3C(=O)N(c4cccnc4)CCO[C@H]3C2)n1,-0.5031,19.11,2.182
CC(C)N1CCC(NC(=O)NCCC(=O)NCc2ccccc2)C1 (stereo not given),6.166,11.06,-7.045
CCOC(=O)C1CN(S(C)(=O)=O)Cc2ncn(CC)c21 (stereo not given),8.383,-2.013,4.514
COCCN1CCC(CNC(=O)C2(c3cc(C)cc(C)c3)CC2)CC1,-22.21,0.3668,0.1013
COC(=O)c1cc(NC(=O)NCC2CCS(=O)(=O)C2)ccc1Cl (stereo not given),-10.72,-2.205,3.923
CCn1ccnc1CN1CCCn2nc(CNC(=O)C3CCC3)cc2C1,1.153,-2.391,5.626
CN(C)CC(=O)N1CCCCC1c1nc(N)ncc1-c1ccccc1 (stereo not given),-4.803,-,0.54
COc1ccc(CN2CC[C@@H](O)[C@@H]2Cc2cnn(C)c2)cc1,6.967,8.6,-2.732
CC(NCc1cnn(C)c1)c1noc(-c2ccc(Cl)cc2)n1 (stereo not given),-4.341,-2.75,2.034
CCn1c(CC2CCN(C(=O)c3ccnn3C)CC2)n[nH]c1=O,3.16,-9.213,3.428
CCS(=O)(=O)N1CC[C@H](OC)[C@H]2CN(Cc3ccncc3)C[C@H]21,0.6829,0.9168,8.183
Cn1nc(COc2cncnc2)c2c1CCN(Cc1ccco1)C2,-6.819,16.05,1.871
Cc1nc(CN(C)Cc2cc3c(cc2OC(F)F)OCO3)oc1C,-13.69,3.987,4.651
O=C1CN(c2ccc(CNC(=O)Nc3nnc(C4CC4)s3)cc2)CCN1,9.386,-6.505,2.853
COCc1ccccc1CNC(=O)CNc1cccc(Cl)c1OC,-9.176,0.5913,2.655
CC(=O)NCCNC(=O)c1cnc2c(c1)nc(-c1ccccc1Cl)n2C,-2.884,0.2639,5.417
Cc1noc(C2(C)CCCN(C(=O)c3cnn(C)c3)C2)n1 (stereo not given),-14.33,-2.725,2.865
CCn1c(C2CCN(C(=O)COCC(F)(F)C(F)F)CC2)n[nH]c1=O,7.671,-4.47,6.027
Cc1ccc(N2CCCC(NCc3ccc(Cl)o3)C2)nn1 (stereo not given),-1.38,0.3975,-0.4689
Cc1cnn(CC2CCCN2CC(=O)N(C)Cc2ccc(C)o2)c1 (stereo not given),-8.035,2.709,0.5782
COCCN(Cc1ccncc1)C(=O)CCSCc1ccc(F)cc1,-2.554,-0.7273,2.962
CCCc1ncc(CNC2(c3ccc(Cl)cc3)CCC2)cn1,5.647,-6.319,2.035
Cc1cc(CN2CCCC(CNC(=O)Cn3cccn3)C2)oc1C (stereo not given),-9.035,-1.27,4.399
O=S(=O)(c1ccccc1Br)N1CCC2(CC1)OCCS2,-4.715,-5.083,9.716
O=C(CC1CC1)N1CCN(Cc2cccnc2)c2ncccc2C1,-13.6,-2.748,-0.1651
Cc1cn([C@@H]2CC3(CCNCC3)OC[C@@]2(C)O)c(=O)[nH]c1=O,-22.65,-6.537,0.4931
Cc1ccc(CN2CCc3nnc(COCCN(C)C)n3CC2)o1,0.3745,-5.762,-2.5
O=C(c1ccccn1)N1CCC2(CC1)COC(COCC1CC1)C2 (stereo not given),2.981,4.359,4.723
Cn1nccc1CN1CCCC(COc2ccccc2F)C1 (stereo not given),-21.38,0.2342,0.7475
CC(=O)N1CCC(Cc2cnc(-n3ccnc3)cn2)CC1,-5.675,3.536,0.06912
COC[C@@]12CCC[C@@H]1CN(C(=O)COC1CCCC1)C2,-8.442,-,2.978
Cc1cc2occ(CC(=O)N3CCC(O)(CN(C)C)C3)c2cc1Cl (stereo not given),-12.54,1.354,10.12
CC(=O)N1Cc2ccccc2OC2(CCN(C(=O)C3CCOC3)CC2)C1 (stereo not given),-34.78,-4.606,2.532
CC(C)Cc1noc(CN(C)c2ncccn2)n1,6.488,-8.144,-0.163
COc1cc(CNc2cc(-c3nncn3C)ccn2)cc(OC)c1OC,-4.932,1.519,5.567
COCC(C)(O)CNC(=O)c1cc(-c2ccc(F)cc2)nn1C (stereo not given),-3.99,0.08937,1.244
CC(NCC1CCN(CCO)CC1)c1ccc(F)c(Cl)c1 (stereo not given),13.16,5.067,1.425

Some entries from above, unchanged:

| compound | A | B | C |
|---|---|---|---|
| `CC(C)C(=O)N1CCC(c2c(C(N)=O)sc3ccccc23)C1` (stereo not given) | -17.6 | 31.08 | -0.7218 |
| `CC(C)OCCCN(Cc1ccncc1)Cc1cccc(F)c1F` | 12.88 | 7.13 | -0.08449 |
| `Cc1cc(C(=O)NS(C)(=O)=O)ccc1I` | -2.826 | 6.381 | -0.8586 |
| `CCn1c(CC2CCN(C(=O)c3ccnn3C)CC2)n[nH]c1=O` | 3.16 | -9.213 | 3.428 |
| `Cc1ccc(N2CCCC(NCc3ccc(Cl)o3)C2)nn1` (stereo not given) | -1.38 | 0.3975 | -0.4689 |
| `Cc1ccc(CN2CCc3nnc(COCCN(C)C)n3CC2)o1` | 0.3745 | -5.762 | -2.5 |
| `Cc1cn([C@@H]2CC3(CCNCC3)OC[C@@]2(C)O)c(=O)[nH]c1=O` | -22.65 | -6.537 | 0.4931 |

From ChEMBL document CHEMBL3988442, “University of Dundee, Small-Polar-MMV Screening Library” (2021).